Measured values as given in PubChem BioAssay AID743279 (National Center for Advancing Translational Sciences (NCATS), 2014).
In all, about 360,000 compounds went through this assay and about 17,000 (4.7%) were called active. Only results without a clear call are listed here; the source files them as inconclusive. Cut-off read from the data, not from the text of the source: active = activity change below about -50%; inconclusive = mostly about -30% to -49%; inactive = weaker than that.

Test: qHTS for Inhibitors of Inflammasome Signaling: IL-1-beta AlphaLISA Primary Screen
Settings: THP-1 LPS/ATP IL-1B secretion, 16 h
Excerpt: Inflammasomes are a set of intracellular multi-protein complexes that enable autocatalytic activation of inflammatory caspases and drive the innate immune response to counter harmful agents. […] A qHTS assay, based on AlphaLISA technology, was developed to screen the Molecular Libraries Small Molecule Repository (MLSMR) to look for novel inflammasome inhibitors. The assay detects IL-1B using AlphaLISA anti-IL-1B acceptor and donor beads. A decreased emission signal, indicating reduced IL-1B secretion, is the desired outcome for this assay. NIH Chemical Genomics Center [NCGC] NIH Molecular Libraries Probe Centers Network [MLPCN] MLPCN Grant: MH095513 Assay Provider: Shyam Biswal Ph.D., Johns Hopkins University Immunity. 2012 Jul 27;37(1):85-95. PMID: 22819042 [2] Curr Pharm Des. 2012;18(16):2320-8. PMID: 22390695
Three microliters containing 3000 THP-1 cells were dispensed into the wells of solid, white, tissue culture treated Greiner 1,536-well plates. Library compounds and positive control, Glyburide, were pin-transferred (23 nL) by a Kalypsys pin-tool equipped with a 1,536-pin array, resulting in final compound concentration ranges of 2.5 nM to 57.5 uM. After 1 hr of cell culture incubation (37 °C, 5% CO2), 1 microL of 1 microg/mL lipopolysaccharide (250 ng/mL, final) and 5 mM ATP (1.25 mM, final) were added to stimulate the cells. After 16 hr of cell culture incubation with the compounds, 1.5 uL of anti-IL-1B acceptor beads (6 ug/mL, final) and biotinylated antibody (0.6 nM, final) were added to the plate, followed by a 1 hr incubation at ambient temperature. To detect the secreted IL-1B, 1.5 uL of AlphaLISA SA-Donor beads (24 ug/mL, final) were added, followed by 30 min of incubation in the dark at ambient temperature. The AlphaLISA signal was read by a PerkinElmer EnVision plate reader with an ultrasensitive luminescence detector and 1536 Plate HTS AlphaScreen aperture (excitation of 680nm and emission of 615nm).

SMILES | outcome
COc1cccc(C(c2nnnn2C(C)(C)C)N2CCC(n3c(=O)[nH]c4ccccc43)CC2)c1OC (stereo not drawn) | inconclusive
O=c1[nH]c2ccccc2n1C1CCN(C(c2cccs2)c2nnnn2C2CCCC2)CC1 (stereo not drawn) | inconclusive
O=c1[nH]c2ccccc2n1C1CCN(C(c2cc3ccccc3o2)c2nnnn2C2CCCC2)CC1 (stereo not drawn) | inconclusive
